Results reported in the supplement of paper PMC5949888.
Most values lie at the floor of the assay. Slopes are relative: functional sequences can read slightly below zero.

The substances below were run on Saccharomyces cerevisiae PS128 hsf1 delta, HSF1(1-493) fusion (assay: growth estimate (transactivation domain function in HSF1 fusion, heat-shock survival) (a.u. (slope of normalised read count over time)); higher = stronger growth at 37°C, i.e. more transactivation activity). Conditions: library: random library.

Substance | growth estimate
VRSQICGERSKESTFQDSSC | < -0.25
CTPDKIGHGGHSVSRVRKLT | < -0.25
VSSRTSEEIPISRGLVLWAP | < -0.25
DCRNNCCGGRMLVMLCARDL | < -0.25
EFLERPGNGWRTHGCLLGLG | < -0.25
FVGQHVARATSAVPVLKWAY | < -0.25
KESY | < -0.25
LRACCHEALNEAPIGKFPPL | < -0.25
LTVRF | < -0.25
FKTQA | < -0.25
SEQCVSPPPLHGFDLMTWLR | -0.17
CTRAGHSSIGLLFLLSTTET | < -0.25
RGEQSDL | < -0.25
IVKVHH | < -0.25
VESEVEQAGHFFGRTTWCRT | < -0.25
DIAGSAGSLWGGAPRTASTI | < -0.25
LLVSRLHTAPATRTLRVGSV | < -0.25
CLQCFSRS | < -0.25
GRECRITSGRRGVTLVGVGH | < -0.25
WRVPTRARLQ | -0.245
AEQWTAAVLAEMQESSVPLR | < -0.25
RKLEAVF | < -0.25
AWLIKVAYSVCKTSLLPGRA | < -0.25
ETGGSRAGMAMNCGPPCHLS | < -0.25
GPSEDFRDTIRYRTAIPLPP | < -0.25
SVGSTA | < -0.25

Substance | growth estimate
GPHRLALDGLYYLGAPKEIA | < -0.25
RGSRRGRLPPSL | < -0.25
HYFRRSCMSETVAGRRGHCP | < -0.25
VVGC | < -0.25
LCLQIFGGISRR | < -0.25
FHSVRWAYVCN | < -0.25
IAATSQ | < -0.25
FASI | < -0.25
RVKAG | < -0.25
WFLTKFGRGAFERNRYMNGF | < -0.25
GWGCLEFSSQ | < -0.25
LKPTAATNGPNMLRITVKRW | < -0.25
PRAGDMTGVVEVV | < -0.25
WNDLH | < -0.25
FHGISRGGGYRSCSTGQS | < -0.25
PSSVLSVTLNLTDC | < -0.25
RALSAFPAYPIHVSLSKVKE | < -0.25
EFRVLEEWPRFSEWHKLWDS | 0.0862
RGPKA | < -0.25
PGLGSGEMSDRRTNP | < -0.25
WLVRVLRRVHFQRVNPDAFL | < -0.25
REIHLP | < -0.25
RRHHCKPDGLAVGFISTDFV | < -0.25
FARRLVRNRQTSQDAMPETA | < -0.25
FQEPSRSIGFD | < -0.25
YPLAKLFGFWHVVVHQALIR | < -0.25

Substance | growth estimate
EKSAGSPGTRVLDHSRNARC | < -0.25
EYGRATMVYALPATRCVRVR | < -0.25
QGILLVGSGSEWVDTSADTL | < -0.25
DGLGDPAATC | < -0.25
ATGLSKMA | < -0.25
TGATTAQVRVDRQRGACRGA | -0.237
RVKS | < -0.25
QNQ | < -0.25
KHCTLRPLVPLRSYRCDFLN | < -0.25
YSTNLIGLHV | < -0.25
RQIHGVGPRVCAAYVQVMTG | < -0.25
YAETNE | < -0.25
WYSSRIAKLDSLY | < -0.25
AIRLRRQAVDSVTAPVTE | < -0.25
GCLSC | < -0.25
FEFGKLRPGTRLTVGHRPEA | -0.0842
QIRGRISSRERPPVNSIGFR | < -0.25
PMIRSPRRCIILREASMSVR | < -0.25
SLALHKVAEVVNDRFREKGA | < -0.25
EVGVAAQPSIFGKKHMCSDR | < -0.25
LYGKIGHGPTKRFR | < -0.25
ECYMFH | < -0.25
WQR | < -0.25
RDWVKGMARCGHAWAGYLKG | < -0.25
GRPTGLGLRTPHHAGILEGV | < -0.25
DVYPGPGYMPRFRRRSVPHQ | < -0.25

Substance | growth estimate
ELDCHVLELGAEALPCMHGS | < -0.25
TCITCYQPRKLVKHY | < -0.25
DSQEFARNACQNAPSLL | -0.228
NTVRFFGACDLSMDFLITLT | < -0.25
TGRNRGRAKKVTGPMAYAKS | < -0.25
ETPLAESSERLR | < -0.25
FERYT | < -0.25
NGVCIDRNKPVSGSICCGRE | < -0.25
GRVPKG | < -0.25
RGRYTL | < -0.25
FKSPVTGAIQRRLGLSRRTQ | < -0.25
VSTSHLTDSKVMFEFDPYAR | < -0.25
VPQSTRNESSGEHAPDRAPR | < -0.25
QVRSMFGSRGSPS | < -0.25
TTGRKRIVVLKFAISVRARG | < -0.25
NRARHDRC | < -0.25
NSQDLVVARYGCLGASL | < -0.25
RRRERIGRTP | < -0.25
ILGRSLHGR | < -0.25
PTFTVETRR | < -0.25
RTVVYPDNRRLVLCARHVLS | -0.243
STGTLGSYSIYGKSIIAPDR | < -0.25
GTGERGRSLGKDGIDNSKAD | < -0.25

An excerpt from the list above, as a working copy:
Substance | growth estimate
ELDCHVLELGAEALPCMHGS | < -0.25
TCITCYQPRKLVKHY | < -0.25
DSQEFARNACQNAPSLL | -0.228
NTVRFFGACDLSMDFLITLT | < -0.25
